Values from PubChem BioAssay AID1224828 (NIAID, 2016)
This is an unselected part of about 17,000 reagents. Over the whole deposit, 762 (4.5%) are marked active. 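Active calls include both raised and lowered p65 entry, mostly lowered; wells with fewer than 50 cells lack a z-score.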 Raw values vary from plate to plate and are shown uncorrected.

- Purpose: 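Knock-downs that increase or decrease LPS-induced p65 nuclear translocation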 (primary screen)
- Cells: mouse RAW264.7 G9 macrophage reporter cells (GFP-p65, Tnf promoter-mCherry)
- Reagent: siRNA pool against mouse genes, 100 nM
- Timing: 2 days siRNA transfection, then 40 min LPS before fixation
- Challenge: LPS (Salmonella minnesota R595) at 10 ng/ml
- Detection: 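Microscopy ratio of nuclear to perinuclear-ring GFP-p65 signal, scaled to the plate median; gene score is the average of two replicate robust z-scores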
- Scale: p65 translocation robust z-score: higher = more nuclear NF-kappaB p65 after LPS than the plate median; nuclear/cytoplasmic p65 ratio: higher = more nuclear NF-kappaB p65
- Rule for the call: 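Active if robust z is above 3.3 (negative regulators) or below -1.56, the Tlr4 control median (positive regulators); activity score 50 or more; control wells not called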
- Calls: active = hit (p65 shift raised or lowered); inactive = no clear change

| gene knocked down | p65 translocation robust z-score | nuclear/cytoplasmic p65 ratio, rep 1 | nuclear/cytoplasmic p65 ratio, rep 2 | low cell count flag | call |
| --- | --- | --- | --- | --- | --- |
| Odf1 | 2.9 | 2.15 | 1.96 | enough cells to score | inactive |
| Slc1a2 | -0.04 | 1.32 | 1.25 | enough cells to score | inactive |
| Rnf112 | -0.75 | 0 | 1.16 | enough cells to score | inactive |
| Tdrd7 | 0.29 | 1.57 | 1.55 | enough cells to score | inactive |
| Apex2 | 1.6 | 1.73 | 1.84 | enough cells to score | inactive |
| Zscan20 | 0.24 | 1.49 | 1.24 | enough cells to score | inactive |
| Phf13 | – | 1.4 | 1.85 | fewer than 50 cells per well; well left out of scoring | inactive |
| D130060J02Rik | 1.08 | 1.8 | 1.89 | enough cells to score | inactive |
| Rag2 | 1.09 | 1.69 | 1.65 | enough cells to score | inactive |
| Arhgef12 | -0.41 | 1.61 | 1.51 | enough cells to score | inactive |
| Cdc6 | 0.51 | 1.57 | 1.41 | enough cells to score | inactive |
| Uba1 | -0.25 | 1.49 | 1.46 | enough cells to score | inactive |
| 9330169L03Rik | 0.68 | 1.44 | 1.64 | enough cells to score | inactive |
| Rbm12b1 | – | 1.34 | 1.33 | fewer than 50 cells per well; well left out of scoring | inactive |
| Ppm1n | 0.42 | 1.65 | 1.86 | enough cells to score | inactive |
| Bambi | -1.67 | 1.32 | 1.57 | enough cells to score | active |
| Oaz2 | 0.22 | 1.46 | 1.46 | enough cells to score | inactive |
| Agfg2 | -0.94 | 1.54 | 1.38 | enough cells to score | inactive |
| Parvb | – | 1.24 | 1.11 | fewer than 50 cells per well; well left out of scoring | inactive |
| Dpy19l3 | 1 | 1.52 | 1.73 | enough cells to score | inactive |
| Purg | -0.74 | 1.26 | 1.15 | enough cells to score | inactive |
| Tbc1d13 | – | 1.43 | 1.06 | fewer than 50 cells per well; well left out of scoring | inactive |
| Gpatch3 | -0.48 | 1.54 | 1.44 | enough cells to score | inactive |
| Adamts5 | -0.46 | 1.54 | 1.56 | enough cells to score | inactive |
| Tmem45b | -0.37 | 1.58 | 1.71 | enough cells to score | inactive |
| Or5b98 | 0.76 | 1.72 | 1.53 | enough cells to score | inactive |
| Pacsin1 | 0.78 | 1.89 | 1.41 | enough cells to score | inactive |
| Sstr2 | -0.12 | 1.49 | 1.42 | enough cells to score | inactive |
| Mtf2 | -0.57 | 1.3 | 1.33 | enough cells to score | inactive |
| Dgkb | 0.43 | 1.84 | 1.37 | enough cells to score | inactive |
| Fads1 | -0.41 | 1.55 | 1.39 | enough cells to score | inactive |
| Edn2 | -0.42 | 1.71 | 1.26 | enough cells to score | inactive |
| Lacc1 | -1.38 | 1.31 | 1.28 | enough cells to score | inactive |
| Cacng2 | -0.08 | 1.62 | 1.73 | enough cells to score | inactive |
| Dhx37 | 0.04 | 1.55 | 1.58 | enough cells to score | inactive |
| Ints6l | -0.05 | 1.37 | 1.44 | enough cells to score | inactive |
| Lancl1 | – | 1.54 | 1.81 | fewer than 50 cells per well; well left out of scoring | inactive |
| Mzt1 | 1.79 | 1.67 | 1.66 | enough cells to score | inactive |
| Csnk2b | -0.29 | 1.61 | 1.37 | enough cells to score | inactive |
| Ugt2b34 | 1.16 | 1.9 | 1.69 | enough cells to score | inactive |
| Mid2 | 1.41 | 1.85 | 1.82 | enough cells to score | inactive |
| Ercc3 | 0.1 | 1.47 | 1.39 | enough cells to score | inactive |
| Wdr55 | -1.23 | 1.22 | 1.32 | enough cells to score | inactive |
| Osbpl8 | -0.26 | 1.37 | 1.24 | enough cells to score | inactive |
| Cyp3a25 | 0.84 | 1.73 | 1.89 | enough cells to score | inactive |
| Fhl3 | -1.7 | 1.32 | 1.2 | enough cells to score | active |
| Lrrc59 | -2.12 | 1.12 | 1.21 | enough cells to score | active |
| S100a8 | -0.6 | 1.86 | 1.15 | enough cells to score | inactive |
| Hdgfl1 | -0.26 | 1.31 | 1.22 | enough cells to score | inactive |
| Arhgap33 | 0.11 | 1.44 | 1.24 | enough cells to score | inactive |
| Ankrd34b | -0.9 | 1.19 | 1.4 | enough cells to score | inactive |
| Ift38 | – | 1.13 | 1.51 | fewer than 50 cells per well; well left out of scoring | inactive |
| Prkra | 1.63 | 2.03 | 1.51 | enough cells to score | inactive |
| Rab3b | -0.47 | 1.58 | 1.33 | enough cells to score | inactive |
| Vmn1r36 | -0.54 | 1.42 | 1.17 | enough cells to score | inactive |
| Eif2b1 | -0.06 | 1.48 | 1.34 | enough cells to score | inactive |
| Gabarapl1 | 0.53 | 1.47 | 1.47 | enough cells to score | inactive |
| Cnot4 | 0.29 | 1.47 | 1.45 | enough cells to score | inactive |
| Or6c68 | – | 1.58 | 0 | fewer than 50 cells per well; well left out of scoring | inactive |

Targets above whose target name starts with D or d:
| gene knocked down | p65 translocation robust z-score | nuclear/cytoplasmic p65 ratio, rep 1 | nuclear/cytoplasmic p65 ratio, rep 2 | low cell count flag | call |
| --- | --- | --- | --- | --- | --- |
| D130060J02Rik | 1.08 | 1.8 | 1.89 | enough cells to score | inactive |
| Dpy19l3 | 1 | 1.52 | 1.73 | enough cells to score | inactive |
| Dgkb | 0.43 | 1.84 | 1.37 | enough cells to score | inactive |
| Dhx37 | 0.04 | 1.55 | 1.58 | enough cells to score | inactive |
